From the supplement of paper PMC10849652 come the findings set out here.

The chains behind the UniProt entries cited, without tags or fusion partners. Where a name states a change or a piece, a line headed by the entry shows the natural chain unless it says otherwise.
UniProt Q9NZJ7, whole entry, looked up: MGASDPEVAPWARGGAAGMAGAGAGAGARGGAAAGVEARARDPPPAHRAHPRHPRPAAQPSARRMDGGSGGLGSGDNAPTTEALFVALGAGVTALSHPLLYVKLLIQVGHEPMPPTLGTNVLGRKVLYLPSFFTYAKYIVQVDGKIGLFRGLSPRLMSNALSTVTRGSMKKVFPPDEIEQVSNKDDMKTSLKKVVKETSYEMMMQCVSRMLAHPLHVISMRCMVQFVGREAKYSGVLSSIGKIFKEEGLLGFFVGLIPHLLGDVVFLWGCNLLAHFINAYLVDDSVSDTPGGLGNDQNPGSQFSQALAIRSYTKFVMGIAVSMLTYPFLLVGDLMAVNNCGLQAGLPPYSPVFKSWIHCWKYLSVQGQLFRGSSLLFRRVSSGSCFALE
UniProt P00846: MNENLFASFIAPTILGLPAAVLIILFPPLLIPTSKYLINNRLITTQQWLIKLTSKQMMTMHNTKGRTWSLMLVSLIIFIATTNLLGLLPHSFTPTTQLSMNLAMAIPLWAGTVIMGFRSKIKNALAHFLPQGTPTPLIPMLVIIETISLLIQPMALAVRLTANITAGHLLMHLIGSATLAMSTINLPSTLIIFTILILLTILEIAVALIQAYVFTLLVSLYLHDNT
UniProt Q9C0I1: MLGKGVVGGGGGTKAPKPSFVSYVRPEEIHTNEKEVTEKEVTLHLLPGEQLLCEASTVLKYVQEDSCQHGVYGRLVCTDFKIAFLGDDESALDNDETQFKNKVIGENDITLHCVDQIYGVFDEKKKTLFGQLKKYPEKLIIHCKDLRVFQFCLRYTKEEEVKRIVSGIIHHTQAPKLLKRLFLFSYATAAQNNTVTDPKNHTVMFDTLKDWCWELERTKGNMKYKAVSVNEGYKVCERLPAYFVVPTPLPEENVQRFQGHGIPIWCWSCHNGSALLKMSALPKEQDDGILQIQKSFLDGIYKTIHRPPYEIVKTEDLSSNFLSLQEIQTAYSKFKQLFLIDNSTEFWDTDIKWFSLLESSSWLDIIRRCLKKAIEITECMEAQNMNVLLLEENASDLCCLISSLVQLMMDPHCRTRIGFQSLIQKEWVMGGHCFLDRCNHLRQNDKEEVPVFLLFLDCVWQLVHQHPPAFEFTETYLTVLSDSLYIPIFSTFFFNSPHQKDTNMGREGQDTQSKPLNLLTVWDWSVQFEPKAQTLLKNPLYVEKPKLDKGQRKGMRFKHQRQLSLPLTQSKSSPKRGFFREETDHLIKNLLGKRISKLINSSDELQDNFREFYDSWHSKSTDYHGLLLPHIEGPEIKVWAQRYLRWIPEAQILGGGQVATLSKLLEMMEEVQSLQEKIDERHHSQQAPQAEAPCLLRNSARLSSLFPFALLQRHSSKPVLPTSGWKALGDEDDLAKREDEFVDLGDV
UniProt P26038, whole entry, looked up: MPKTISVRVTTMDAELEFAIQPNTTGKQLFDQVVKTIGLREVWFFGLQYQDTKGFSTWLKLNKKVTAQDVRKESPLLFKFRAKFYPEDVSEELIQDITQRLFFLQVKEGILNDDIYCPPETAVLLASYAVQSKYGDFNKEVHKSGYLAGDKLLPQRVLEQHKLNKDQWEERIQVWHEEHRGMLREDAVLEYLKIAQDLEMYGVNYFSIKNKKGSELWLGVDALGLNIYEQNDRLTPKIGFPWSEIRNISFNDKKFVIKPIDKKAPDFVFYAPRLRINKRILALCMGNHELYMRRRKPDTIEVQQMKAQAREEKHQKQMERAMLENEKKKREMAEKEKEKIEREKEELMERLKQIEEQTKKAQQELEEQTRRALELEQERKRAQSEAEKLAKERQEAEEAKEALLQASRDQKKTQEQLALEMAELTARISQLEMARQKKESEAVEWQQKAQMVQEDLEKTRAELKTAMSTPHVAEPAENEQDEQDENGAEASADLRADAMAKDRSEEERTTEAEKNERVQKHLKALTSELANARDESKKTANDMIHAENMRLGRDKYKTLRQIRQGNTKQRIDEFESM
UniProt Q15800: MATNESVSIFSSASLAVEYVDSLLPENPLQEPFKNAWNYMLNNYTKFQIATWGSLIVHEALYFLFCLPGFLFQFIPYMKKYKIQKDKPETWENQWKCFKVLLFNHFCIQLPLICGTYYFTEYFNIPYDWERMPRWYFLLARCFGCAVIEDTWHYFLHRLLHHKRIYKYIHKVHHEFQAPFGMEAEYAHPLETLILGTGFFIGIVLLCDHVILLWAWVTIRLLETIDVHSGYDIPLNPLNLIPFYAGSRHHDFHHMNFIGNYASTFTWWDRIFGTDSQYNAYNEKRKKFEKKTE
UniProt Q96DR8: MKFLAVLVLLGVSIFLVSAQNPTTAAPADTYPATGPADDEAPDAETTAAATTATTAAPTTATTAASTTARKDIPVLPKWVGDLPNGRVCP
UniProt Q969V6: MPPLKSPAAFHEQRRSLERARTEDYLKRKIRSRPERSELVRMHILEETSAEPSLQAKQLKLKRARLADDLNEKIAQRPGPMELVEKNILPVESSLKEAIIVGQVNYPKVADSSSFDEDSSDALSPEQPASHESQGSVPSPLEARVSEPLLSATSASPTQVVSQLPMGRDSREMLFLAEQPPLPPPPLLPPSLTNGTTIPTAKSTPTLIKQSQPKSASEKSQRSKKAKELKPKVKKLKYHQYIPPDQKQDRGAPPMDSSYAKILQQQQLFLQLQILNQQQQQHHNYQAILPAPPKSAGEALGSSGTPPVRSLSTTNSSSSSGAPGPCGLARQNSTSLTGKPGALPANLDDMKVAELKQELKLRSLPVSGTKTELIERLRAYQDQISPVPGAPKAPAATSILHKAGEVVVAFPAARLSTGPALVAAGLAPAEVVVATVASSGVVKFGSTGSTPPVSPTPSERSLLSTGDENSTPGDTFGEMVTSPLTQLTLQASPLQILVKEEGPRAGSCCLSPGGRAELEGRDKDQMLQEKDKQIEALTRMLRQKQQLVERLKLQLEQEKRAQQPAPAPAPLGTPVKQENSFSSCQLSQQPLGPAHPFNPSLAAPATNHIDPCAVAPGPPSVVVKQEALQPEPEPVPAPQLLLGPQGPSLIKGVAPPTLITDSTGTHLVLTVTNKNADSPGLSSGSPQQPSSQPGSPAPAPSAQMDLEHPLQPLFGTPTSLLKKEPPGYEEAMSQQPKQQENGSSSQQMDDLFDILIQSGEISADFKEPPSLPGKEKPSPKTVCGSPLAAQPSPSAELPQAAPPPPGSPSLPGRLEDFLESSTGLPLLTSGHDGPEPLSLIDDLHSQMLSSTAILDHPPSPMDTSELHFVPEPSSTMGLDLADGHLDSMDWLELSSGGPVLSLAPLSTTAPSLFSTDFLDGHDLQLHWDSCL
UniProt P14649: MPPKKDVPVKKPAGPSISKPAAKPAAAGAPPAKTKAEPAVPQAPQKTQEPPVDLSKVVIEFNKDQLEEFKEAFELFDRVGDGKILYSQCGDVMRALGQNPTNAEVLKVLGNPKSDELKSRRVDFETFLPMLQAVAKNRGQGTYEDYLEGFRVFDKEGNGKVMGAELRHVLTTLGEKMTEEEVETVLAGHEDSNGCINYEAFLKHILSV
UniProt P82909: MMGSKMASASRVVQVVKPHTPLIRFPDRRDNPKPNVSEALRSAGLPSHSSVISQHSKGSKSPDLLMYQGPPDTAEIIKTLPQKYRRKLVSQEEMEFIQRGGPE
UniProt Q9NVV4: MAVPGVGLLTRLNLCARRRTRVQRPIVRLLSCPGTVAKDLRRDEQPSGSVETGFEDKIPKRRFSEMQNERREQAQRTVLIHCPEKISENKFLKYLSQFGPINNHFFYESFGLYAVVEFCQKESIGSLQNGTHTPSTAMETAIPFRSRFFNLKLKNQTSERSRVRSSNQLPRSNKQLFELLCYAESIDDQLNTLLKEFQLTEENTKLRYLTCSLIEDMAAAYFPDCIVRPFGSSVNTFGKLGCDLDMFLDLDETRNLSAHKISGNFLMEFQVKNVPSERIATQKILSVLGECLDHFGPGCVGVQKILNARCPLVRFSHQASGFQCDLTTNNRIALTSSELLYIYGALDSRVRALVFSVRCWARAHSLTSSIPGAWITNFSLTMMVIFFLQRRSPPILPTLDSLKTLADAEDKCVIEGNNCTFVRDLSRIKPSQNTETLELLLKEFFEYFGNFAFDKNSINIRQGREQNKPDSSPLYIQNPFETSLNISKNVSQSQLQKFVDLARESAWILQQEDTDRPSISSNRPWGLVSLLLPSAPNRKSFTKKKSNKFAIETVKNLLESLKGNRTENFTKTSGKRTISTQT
UniProt P35579, whole entry, looked up: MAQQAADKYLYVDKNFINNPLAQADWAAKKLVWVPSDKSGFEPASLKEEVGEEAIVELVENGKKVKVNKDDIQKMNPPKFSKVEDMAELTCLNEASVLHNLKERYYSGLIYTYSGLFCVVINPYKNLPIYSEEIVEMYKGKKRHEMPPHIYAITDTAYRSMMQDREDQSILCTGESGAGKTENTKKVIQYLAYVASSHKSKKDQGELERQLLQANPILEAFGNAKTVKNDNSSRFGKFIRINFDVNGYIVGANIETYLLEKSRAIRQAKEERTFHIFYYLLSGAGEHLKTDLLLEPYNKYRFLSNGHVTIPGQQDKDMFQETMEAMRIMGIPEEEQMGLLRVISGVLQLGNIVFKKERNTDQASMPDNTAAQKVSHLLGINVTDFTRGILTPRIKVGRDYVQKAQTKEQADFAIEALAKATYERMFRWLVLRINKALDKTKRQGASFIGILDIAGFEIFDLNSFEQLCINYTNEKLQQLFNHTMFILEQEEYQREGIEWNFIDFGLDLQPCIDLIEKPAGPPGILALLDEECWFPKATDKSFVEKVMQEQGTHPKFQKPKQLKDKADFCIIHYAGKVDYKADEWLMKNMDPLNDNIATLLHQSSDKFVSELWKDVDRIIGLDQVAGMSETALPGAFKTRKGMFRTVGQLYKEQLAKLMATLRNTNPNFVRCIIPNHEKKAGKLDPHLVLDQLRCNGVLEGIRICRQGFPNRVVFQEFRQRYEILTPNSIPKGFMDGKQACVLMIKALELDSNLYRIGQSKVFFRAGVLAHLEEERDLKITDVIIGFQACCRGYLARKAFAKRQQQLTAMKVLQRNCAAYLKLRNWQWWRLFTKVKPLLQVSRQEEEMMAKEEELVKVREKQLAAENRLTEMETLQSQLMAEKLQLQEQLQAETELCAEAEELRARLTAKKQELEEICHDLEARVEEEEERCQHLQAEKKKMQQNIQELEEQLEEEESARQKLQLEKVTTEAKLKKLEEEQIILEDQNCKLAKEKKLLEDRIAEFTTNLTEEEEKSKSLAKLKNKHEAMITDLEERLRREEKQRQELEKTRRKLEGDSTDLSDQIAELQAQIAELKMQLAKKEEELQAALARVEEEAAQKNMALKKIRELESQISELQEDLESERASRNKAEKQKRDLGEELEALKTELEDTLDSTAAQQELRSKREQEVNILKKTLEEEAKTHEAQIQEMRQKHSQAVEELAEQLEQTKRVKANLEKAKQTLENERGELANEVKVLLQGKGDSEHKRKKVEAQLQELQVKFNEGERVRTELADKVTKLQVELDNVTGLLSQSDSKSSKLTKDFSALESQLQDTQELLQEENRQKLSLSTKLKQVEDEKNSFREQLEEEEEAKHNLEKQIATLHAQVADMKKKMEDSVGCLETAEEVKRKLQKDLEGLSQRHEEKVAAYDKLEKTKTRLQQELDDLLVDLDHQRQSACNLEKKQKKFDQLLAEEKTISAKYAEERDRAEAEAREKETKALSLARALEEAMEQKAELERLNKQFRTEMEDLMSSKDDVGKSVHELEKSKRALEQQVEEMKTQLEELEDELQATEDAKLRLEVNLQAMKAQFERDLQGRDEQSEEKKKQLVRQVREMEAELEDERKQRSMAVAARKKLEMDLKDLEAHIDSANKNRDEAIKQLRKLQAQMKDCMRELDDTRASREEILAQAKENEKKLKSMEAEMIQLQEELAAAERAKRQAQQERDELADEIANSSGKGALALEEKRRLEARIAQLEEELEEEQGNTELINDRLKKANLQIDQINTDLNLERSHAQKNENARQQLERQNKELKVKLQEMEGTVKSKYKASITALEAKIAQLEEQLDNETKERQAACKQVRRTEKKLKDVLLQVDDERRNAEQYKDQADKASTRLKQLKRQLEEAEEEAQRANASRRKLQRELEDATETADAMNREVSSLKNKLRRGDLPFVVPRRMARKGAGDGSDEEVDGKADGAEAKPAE
UniProt Q9HD23: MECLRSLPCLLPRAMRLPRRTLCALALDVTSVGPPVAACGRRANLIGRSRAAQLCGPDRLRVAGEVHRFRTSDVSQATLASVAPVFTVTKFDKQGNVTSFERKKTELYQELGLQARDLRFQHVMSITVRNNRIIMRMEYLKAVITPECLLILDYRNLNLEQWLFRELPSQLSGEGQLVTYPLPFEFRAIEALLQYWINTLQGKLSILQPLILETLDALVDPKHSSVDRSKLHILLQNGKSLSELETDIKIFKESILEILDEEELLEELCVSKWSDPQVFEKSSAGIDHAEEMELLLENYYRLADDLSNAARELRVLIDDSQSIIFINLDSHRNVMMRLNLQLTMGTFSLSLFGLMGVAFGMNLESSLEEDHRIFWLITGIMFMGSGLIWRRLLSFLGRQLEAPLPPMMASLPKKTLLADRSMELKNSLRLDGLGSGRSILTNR

This is one part of the list.

Compound in the first experiment: NC1(c2ccc(-c3nc4ccn5c(=O)[nH]nc5c4cc3-c3ccccc3)cc2)CCC1
Kind of experiment: log2 fold change, soluble protein after heating vs DMSO (PISA); higher = thermal stabilisation; K562 cells, 10 uM, 30 min; active = over 0.2 and 3.5 SD of the protein, either way, in both replicates (recomputed). The procedure, abridged: (§1)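 K562 cells at 2×10^6 cells/mL were treated for 30 min with 10 μM compound, and aliquots were heated for 3 min over 48°C-58°C before pooling. Extraction used PBS with 0.5% NP-40 at 4°C, and soluble protein was the supernatant after 21,000xg for 90 min, measured by TMTpro 16plex LC-MS/MS with channel sums equalised. Thermal stability values, relative to control samples and from duplicates, are log2 fold changes.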
For MTCH1 (UniProt Q9NZJ7), the log2 fold change was inactive: -0.035.
On the same count and under the same terms, as for MTHFD2 (UniProt P13995), the figure is inactive: -0.119.
The same measure, in the same setting: with MT-CYB (UniProt P00156) the figure was inactive: 0.109; with MYH11 isoform 2 (UniProt P35749), inactive: -0.017; with MT-ATP6 (UniProt P00846), inactive: 0.197.
The same measure, in the same setting: with MYO1D (UniProt O94832) the figure was inactive: 0.052; with MTHFD1, A0A384N5Y3, inactive: 0.17; with MRRF (UniProt Q96E11), inactive: -0.004.
Turning to MTMR12 (UniProt Q9C0I1), the log2 fold change was inactive: -0.016.
Regarding MSN (UniProt P26038), the log2 fold change was inactive: 0.01.
On the same count and under the same terms, with MSMO1 (UniProt Q15800) the figure was inactive: -0.037; with MRPS10 (UniProt P82664), inactive: -0.052; with MTMR6 (UniProt Q9Y217), inactive: -0.076.
For MUCL1 (UniProt Q96DR8), the log2 fold change was inactive: -0.107.
For the target MRPS2 (UniProt Q9Y399), the log2 fold change was inactive: -0.102.
The same measure, in the same setting: with MRPS15 (UniProt P82914) the figure was inactive: -0.057; with MRPS27 isoform 2 (UniProt Q92552), inactive: -0.105.
Regarding MSRB2 (UniProt Q9Y3D2), the log2 fold change is inactive: 0.079.
As for MYCBP (UniProt Q99417), the log2 fold change was inactive: 0.034.
In the case of MRPS11 (UniProt P82912), the log2 fold change was inactive: -0.118.
As to MRPS33 (UniProt Q9Y291), the log2 fold change was inactive: -0.032.
Still for that read-out and setting: as for MRTFA (UniProt Q969V6), the figure is inactive: -0.027; as for MYL6B (UniProt P14649), inactive: -0.031.
Still for that read-out and setting: with MTM1 (UniProt Q13496) the figure was inactive: -0.058; with MRPS36 (UniProt P82909), inactive: 0.095.
The same measure, in the same setting: with MTRR isoform 1 (UniProt Q9UBK8) the figure was inactive: -0.011.
In the case of MRPS24 (UniProt Q96EL2), the log2 fold change is inactive: -0.021.
For the target MTPAP (UniProt Q9NVV4), the log2 fold change is inactive: 0.105.
On to MRPL9 (UniProt Q9BYD2), for which the log2 fold change was inactive: -0.06.
In the case of MRPS30 (UniProt Q9NP92), the log2 fold change was inactive: -0.022.
On the same count and under the same terms, as for MTMR14 (UniProt Q8NCE2), the figure is inactive: -0.087.
On the same count and under the same terms, as for MTX2 (UniProt O75431), the figure is inactive: 0.013.
For the target MTA1 (UniProt Q13330), the log2 fold change is inactive: -0.082.
Still for that read-out and setting: with MYADM (UniProt Q96S97) the figure was inactive: 0.003.
Still for that read-out and setting: with MTOR (UniProt P42345) the figure was active: -0.315; with MYO6 isoform 6 (UniProt Q9UM54), inactive: -0.07.
As for MYH9 (UniProt P35579), the log2 fold change is inactive: -0.069.
The same measure, in the same setting: as for MRPS18A isoform 2 (UniProt Q9NVS2), the figure is inactive: 0.071; as for MRS2 (UniProt Q9HD23), inactive: -0.039.

Compound in a further experiment: NCC(=O)Nc1ccc(-n2nc(C(F)(F)F)cc2-c2ccc3c(ccc4ccccc43)c2)cc1
The experiment is described as above. In a few lines:
as §1
For the target MTCH1 (UniProt Q9NZJ7), the log2 fold change is inactive: 0.009.
The same measure, in the same setting: with MTHFD2 (UniProt P13995) the figure was inactive: -0.036; with MT-CYB (UniProt P00156), inactive: 0.024; with MYH11 isoform 2 (UniProt P35749), inactive: 0.046.
Same read-out and setting: as for MT-ATP6 (UniProt P00846), the figure is inactive: 0.081.
MYO1D (UniProt O94832): the log2 fold change was inactive: -0.019.
Take MTHFD1, A0A384N5Y3: the log2 fold change is inactive: -0.077.
On the same count and under the same terms, with MRRF (UniProt Q96E11) the figure was inactive: 0.029.
Regarding MTMR12 (UniProt Q9C0I1), the log2 fold change was inactive: -0.032.
In the case of MSN (UniProt P26038), the log2 fold change was inactive: 0.02.
In the case of MSMO1 (UniProt Q15800), the log2 fold change is inactive: -0.034.
Consider MRPS10 (UniProt P82664), for which the log2 fold change was inactive: 0.011.
With MTMR6 (UniProt Q9Y217), the log2 fold change was inactive: 0.027.
On the same count and under the same terms, as for MUCL1 (UniProt Q96DR8), the figure is inactive: 0.245.
Still for that read-out and setting: with MRPS2 (UniProt Q9Y399) the figure was inactive: 0.062.
On the same count and under the same terms, as for MRPS15 (UniProt P82914), the figure is inactive: 0.119; as for MRPS27 isoform 2 (UniProt Q92552), inactive: -0.007.
In the case of MSRB2 (UniProt Q9Y3D2), the log2 fold change is inactive: 0.235.
The same measure, in the same setting: as for MYCBP (UniProt Q99417), the figure is inactive: -0.087.
On to MRPS11 (UniProt P82912), for which the log2 fold change was inactive: 0.209.
With MRPS33 (UniProt Q9Y291), the log2 fold change was inactive: 0.046.
With MRTFA (UniProt Q969V6), the log2 fold change is inactive: 0.105.
For MYL6B (UniProt P14649), the log2 fold change is inactive: 0.01.
Take MTM1 (UniProt Q13496): the log2 fold change was inactive: 0.032.
The same measure, in the same setting: as for MRPS36 (UniProt P82909), the figure is inactive: -0.035; as for MTRR isoform 1 (UniProt Q9UBK8), inactive: -0.021.
On the same count and under the same terms, as for MRPS24 (UniProt Q96EL2), the figure is inactive: -0.086; as for MTPAP (UniProt Q9NVV4), inactive: -0.023.
On the same count and under the same terms, as for MRPL9 (UniProt Q9BYD2), the figure is inactive: 0.083.
In the case of MRPS30 (UniProt Q9NP92), the log2 fold change was inactive: 0.027.
For MTMR14 (UniProt Q8NCE2), the log2 fold change is inactive: -0.075.
The same measure, in the same setting: as for MTX2 (UniProt O75431), the figure is inactive: -0.005.
MTA1 (UniProt Q13330): the log2 fold change is inactive: -0.026.
For the target MYADM (UniProt Q96S97), the log2 fold change is inactive: -0.041.
With MTOR (UniProt P42345), the log2 fold change was inactive: -0.111.
For the target MYO6 isoform 6 (UniProt Q9UM54), the log2 fold change is inactive: 0.008.
On to MYH9 (UniProt P35579), for which the log2 fold change is inactive: 0.034.
Still for that read-out and setting: as for MRPS18A isoform 2 (UniProt Q9NVS2), the figure is inactive: 0.074; as for MRS2 (UniProt Q9HD23), inactive: -0.031.
